Measured values reported in PubChem BioAssay AID504847 (National Center for Advancing Translational Sciences (NCATS), 2011).
Hit rate of the full screen: of about 400,000 compounds, about 3,700 (0.93%) were called active. This list was built around the results that the source calls inconclusive (neither active nor inactive); the mix of calls is not that of the screen. Calls follow the shape of the dose curve; as a rule, active = well fitted inhibition curve with a large enough effect; inconclusive = small, poorly fitted or top-dose-only effect, or another doubt; inactive = no such curve, though single readings can be large or run the other way. Potencies beside an inconclusive call are fits to weak or partial responses and may not hold up.

Amino acid sequences for entries named in this document (tags omitted). A change or cut given only in a name is not applied to a line headed by its entry.
UniProt P11473: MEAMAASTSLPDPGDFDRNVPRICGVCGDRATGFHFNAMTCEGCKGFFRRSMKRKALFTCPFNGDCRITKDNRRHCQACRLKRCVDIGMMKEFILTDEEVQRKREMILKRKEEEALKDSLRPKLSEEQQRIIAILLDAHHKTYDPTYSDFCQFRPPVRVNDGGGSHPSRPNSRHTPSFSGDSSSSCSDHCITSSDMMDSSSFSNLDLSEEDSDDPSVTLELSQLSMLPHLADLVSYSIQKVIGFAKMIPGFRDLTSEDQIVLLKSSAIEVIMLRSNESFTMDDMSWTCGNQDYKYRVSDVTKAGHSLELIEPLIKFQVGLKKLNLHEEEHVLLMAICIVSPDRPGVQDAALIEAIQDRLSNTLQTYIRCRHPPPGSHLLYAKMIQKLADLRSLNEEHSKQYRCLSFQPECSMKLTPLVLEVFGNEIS

target: Vitamin D3 receptor (Homo sapiens) (UniProt P11473); assay: Inhibitors of the vitamin D receptor (VDR): qHTS; details: VDR-SRC2-3 peptide fluorescence polarization, 2 h; max response, negative = inhibition: stronger effect = lower value
Method in brief: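 Compounds are added to VDR with labelled SRC2-3 coactivator peptide and held 2 h at room temperature. Inhibition of the VDR–peptide interaction is then read as a change in fluorescence polarization.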
% is scaled to controls: 0 for no effect and ±100 for the full control effect; potency is read from the fitted curve at half-maximal effect.

Potency, active:
C#CCOc1ccc(/C=C2/C(=O)ON=C2C)cc1Br 39.8 µM
CCOc1ccc(/C=C/C(=O)Nc2sc3c(c2C(=O)OC)C(C(=O)OC)CC3)cc1 (stereo not drawn) 22.4 µM
COCCN(C(=O)CSc1nc2ccccc2s1)c1c(N)n(Cc2ccccc2)c(=O)[nH]c1=O 79.4 µM

Potency, inconclusive:
C/C(Cl)=C\Cn1c(O)c(N=NC(N)=S)c2cc(Br)ccc21 56.2 µM [inhibitor, partial curve, poor fit]
CSc1cccc(NC(=S)N(Cc2ccccc2)Cc2cccnc2)c1 89.1 µM [inhibitor, single point]
N#Cc1ccc(Cn2c(=O)oc3ccccc32)cc1 89.1 µM [inhibitor, partial curve, poor fit]
CC(=O)OCC(=O)[C@H]1CC[C@H]2[C@@H]3CCC4=CC(=O)CC[C@]4(C)[C@H]3CC[C@]12C 50.1 µM [inhibitor, partial curve]
O=C(Cc1ccccc1)Nc1sc2c(c1C(=O)Nc1ccccc1)CCCCC2 28.2 µM [inhibitor, full curve]
Cc1cc(C(=O)Nc2ccc(S(=O)(=O)Nc3onc(C)c3C)cc2)c(C)o1 89.1 µM [inhibitor, single point]
N#Cc1c(N2CCCC(O)C2)nc(N)c2c(N)nc3c(c12)CC(=O)N3C12CC3CC(CC(C3)C1)C2 (stereo not drawn) 79.4 µM [inhibitor, partial curve, poor fit]
CCc1ccc2[nH]c3nc(SCCN4CCOCC4)nnc3c2c1 89.1 µM [inhibitor, partial curve, poor fit]
Cc1cccc(/C=N/n2c(C3CCCCC3)n[nH]c2=S)c1 56.2 µM [inhibitor, partial curve, poor fit]
COc1ccccc1C(=O)N(CCN(C)C)c1nc2cc(C)cc(C)c2s1 100 µM [inhibitor, single point]
COc1cccc(N(C(=O)c2sc(C)nc2C)C(C(=O)NCC2CCCO2)c2ccccc2)c1 (stereo not drawn) 70.8 µM [inhibitor, single point]
O=C1c2ccccc2-c2nc3ccccc3nc21 56.2 µM [inhibitor, partial curve, poor fit]
CCCNS(=O)(=O)c1ccc2nc(NC(=O)c3ccc(F)cc3)sc2c1 22.4 µM [inhibitor, partial curve]
COc1nccnc1NS(=O)(=O)c1ccc(NCc2ccccc2O)cc1 0.631 µM [inhibitor, full curve, poor fit]
O=S(=O)(c1ccc(=S)[nH]c1)N1CCCC1 70.8 µM [inhibitor, partial curve]
CCN(CC)S(=O)(=O)c1cccc(C(=O)NCC2CCCCC2)c1 70.8 µM [inhibitor, partial curve]
O=C(CCN1CCOCC1)c1ccc(N2CCCCC2)cc1 50.1 µM [inhibitor, partial curve, poor fit]
CN1CCN(/N=C/c2ccc(N(c3ccccc3)c3ccccc3)cc2)CC1 89.1 µM [inhibitor, single point]
Cn1cccc1C(=O)N1CCC2(CC1)CN(Cc1cc(C(F)(F)F)cc(C(F)(F)F)c1)C2 79.4 µM [inhibitor, partial curve, poor fit]
COc1ccccc1CNC(=O)CC(C)C 14.1 µM [inhibitor, partial curve, poor fit]
COc1cc(-c2nc3ccc4ccccc4c3c3c2CCC3)ccc1O 79.4 µM [inhibitor, single point]
COc1ccc(OC)c(-c2nnc3n2N=C(c2ccc(OC)c(OC4CCCC4)c2)CS3)c1 89.1 µM [inhibitor, partial curve, poor fit]
CCOC(=O)C1(C)C(C(=O)OC)=C(c2ccc(OC)cc2)c2ccccc2N1C(=O)OC (stereo not drawn) 50.1 µM [inhibitor, partial curve, poor fit]
OCCC1CN(Cc2c(O)ccc3ccccc23)CCN1CCc1ccccc1 (stereo not drawn) 44.7 µM [inhibitor, partial curve]
CCN(c1ccccc1)S(=O)(=O)c1cc(NC(=O)CSc2n[nH]c(=O)[nH]c2=O)ccc1Cl 100 µM [inhibitor, partial curve, poor fit]

Max response, negative = inhibition, inactive:
Cc1ccc(COC(=O)CN2C(=O)NC3(CCCCC3C)C2=O)cc1 (stereo not drawn) 6.61%
COc1ccc(C(=O)N/C(=C\c2cn(S(=O)(=O)N(C)C)c3ccccc23)C(=O)N2CCOCC2)cc1 -7.86%
O=C(NCCCN1CCOCC1)C1Cc2c(ccc3ccccc23)O1 (stereo not drawn) -21.6%
CC1CCN(CCNC(=O)C2CCCN(S(=O)(=O)c3cccc4nsnc34)C2)CC1 (stereo not drawn) -14.9%
O=C(COC(=O)CSc1ccc2ccccc2c1)NC1CC1 12.5%
O=C(OCc1cnc(Cl)s1)c1ccccc1Cl 3.13%
COc1ccc(C(=O)NNC(=O)CN2CCN(c3nc(-c4ccccc4)cs3)CC2)cc1 24.2%
CSc1cccc(NC(=O)c2cccc(N3CCCS3(=O)=O)c2)c1 4.53%
O=C(Nc1ccccc1)C(=O)Nc1ccc2c(c1)N(C(=O)C1CC1)CCC2 -3.61%
Cc1ccc(Nc2nc(CSc3nnc(-c4ccncc4)n3C)cs2)cc1 -19.1%
Cc1noc(C)c1C(=O)N1CCC2(CC1)CN(Cc1cc(C(F)(F)F)cc(C(F)(F)F)c1)C2 -19.9%
COc1ccc(-c2cc(C(=O)NCCc3ccccc3)c3c(-c4ccccc4)[nH]nc3n2)cc1OC -8.95%
COc1ccc(Br)cc1/C=N/NC(=O)CNC(=O)/C=C/c1ccccc1 4.92%
CC(=O)Nc1ccc(NC(=O)c2ccc(-c3ccccc3Cl)o2)cc1 9.52%
CN(Cc1nccs1)C(=O)CC1C(=O)NCCN1Cc1ccc(-c2ccccc2)cc1 (stereo not drawn) -15.1%

An excerpt from above in order of molecular weight, ascending.
Max response, negative = inhibition, inactive:
CN(Cc1nccs1)C(=O)CC1C(=O)NCCN1Cc1ccc(-c2ccccc2)cc1 (stereo not drawn) -15.1%
COc1ccc(C(=O)NNC(=O)CN2CCN(c3nc(-c4ccccc4)cs3)CC2)cc1 24.2%
COc1ccc(C(=O)N/C(=C\c2cn(S(=O)(=O)N(C)C)c3ccccc23)C(=O)N2CCOCC2)cc1 -7.86%
